From patent US20170306050A1
Results are given in words; binding and its absence hold for the method and conditions named. Some binding calls cover weakened binding; strength is not graded here.

By UniProt entry, the sequences of proteins in these tests, tags left out. Where a name states a change or a piece, a line headed by the entry shows the natural chain unless it says otherwise.
UniProt P14780: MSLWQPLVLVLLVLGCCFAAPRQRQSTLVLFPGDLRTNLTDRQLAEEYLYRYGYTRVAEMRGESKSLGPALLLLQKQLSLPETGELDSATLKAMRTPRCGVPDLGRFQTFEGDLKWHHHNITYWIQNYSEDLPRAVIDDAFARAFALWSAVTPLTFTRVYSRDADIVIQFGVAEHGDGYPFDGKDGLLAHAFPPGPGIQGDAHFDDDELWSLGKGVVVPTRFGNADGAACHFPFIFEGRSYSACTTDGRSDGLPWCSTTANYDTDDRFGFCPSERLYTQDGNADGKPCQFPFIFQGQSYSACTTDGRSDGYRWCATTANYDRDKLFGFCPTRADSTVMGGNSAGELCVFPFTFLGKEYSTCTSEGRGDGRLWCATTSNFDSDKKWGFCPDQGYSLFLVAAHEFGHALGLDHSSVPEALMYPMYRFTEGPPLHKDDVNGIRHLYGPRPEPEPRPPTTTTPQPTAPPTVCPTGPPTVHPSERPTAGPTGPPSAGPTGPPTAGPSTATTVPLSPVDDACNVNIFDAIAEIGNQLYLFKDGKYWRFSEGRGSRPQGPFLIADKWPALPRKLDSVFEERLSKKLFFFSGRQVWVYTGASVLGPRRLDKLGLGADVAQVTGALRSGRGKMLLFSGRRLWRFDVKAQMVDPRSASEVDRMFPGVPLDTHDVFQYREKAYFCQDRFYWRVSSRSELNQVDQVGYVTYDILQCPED

What was measured:
active MMP9 (human) [1] = target: active MMP9 (human) (UniProt P14780); experiment: Li-Cor Western blot of colon lysates from UC and Crohn's disease patients
[2] = target: active MMP9 with an added N-terminal aspartic acid (human) (UniProt P14780); experiment: immunohistochemistry (FIG. 1B)
[3] = target: T1, neo-epitope peptide FQTFEGD; experiment: peptide ELISA (FIG. 1C)
T1 sequence (peptide): FQTFEGD

[4] = target: T2, total fragment of cleavage site …; experiment: peptide ELISA (FIG. 1C)
T2 sequence (peptide): VPDLGRFQTFEGD

[5] = target: T3, fragment of the neo-epitope QTFEGD; experiment: peptide ELISA (FIG. 1C)
T3 sequence (peptide): QTFEGD

active MMP9 (human) [6] = target: active MMP9 (human) (UniProt P14780); experiment: Western blot

Measured: binding

B1: Active AB (antibody, V domains shown)
VH: QSVEESGGRLVTPGTPLTLTCTASGFTISSYHMTWVRQAPMKGLEWIGTISSSGSTYYASWAKGRFTISKTSSTTVDLKITSPATEDTATYFCARSVPGDSSGEIWGRGTLVTVSS
VL: AQVLTQTASPVSAAVGGTVTINCQSSQSVYNKNWLAWYQQKPGQPPKRLIYSASTLDSGVSSRFKGSGSGTQFTLTISGVQCDDAATYYCQGEFSCSRGDCSAFGGGTEVVVQG
binds: active MMP9 (human) [1] | [2] | [3] | [4] | [5] | active MMP9 (human) [6]
